The source of these data is patent publication US20150368611A1.

Protein sequences, listed by entry. Tags and fused reporters are not part of them. Lines headed by an entry give the natural chain unless they say otherwise; changes in a name come on top. Chains listed by the source or under a name are the forms on record and can include a tag or linker.
RORγt, mouse (P51450, form named): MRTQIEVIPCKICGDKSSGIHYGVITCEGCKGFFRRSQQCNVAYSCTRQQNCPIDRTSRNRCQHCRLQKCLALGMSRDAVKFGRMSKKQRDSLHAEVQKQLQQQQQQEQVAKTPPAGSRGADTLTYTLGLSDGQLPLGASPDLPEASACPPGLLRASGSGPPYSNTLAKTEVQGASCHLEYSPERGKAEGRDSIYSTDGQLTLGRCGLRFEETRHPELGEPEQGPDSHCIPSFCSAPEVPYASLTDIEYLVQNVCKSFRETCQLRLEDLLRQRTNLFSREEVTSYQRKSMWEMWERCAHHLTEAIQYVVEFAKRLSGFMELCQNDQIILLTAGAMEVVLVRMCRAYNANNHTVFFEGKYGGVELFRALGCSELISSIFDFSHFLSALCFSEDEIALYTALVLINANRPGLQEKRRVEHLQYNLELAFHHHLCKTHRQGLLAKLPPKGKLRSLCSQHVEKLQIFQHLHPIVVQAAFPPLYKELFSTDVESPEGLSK
UniProt P28033: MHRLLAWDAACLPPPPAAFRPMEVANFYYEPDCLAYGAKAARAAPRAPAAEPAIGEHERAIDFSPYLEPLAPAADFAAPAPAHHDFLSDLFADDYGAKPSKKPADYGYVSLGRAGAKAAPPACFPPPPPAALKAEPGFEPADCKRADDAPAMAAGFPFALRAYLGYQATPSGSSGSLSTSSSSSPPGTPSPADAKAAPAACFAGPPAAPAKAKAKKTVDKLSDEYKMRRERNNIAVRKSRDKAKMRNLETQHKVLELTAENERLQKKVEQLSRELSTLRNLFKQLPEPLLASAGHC

The target of experiment [1] is RORγt, mouse (mouse) (UniProt P51450). As to the kind of experiment: co-immunoprecipitation from whole cell extracts of transfected 293T cells (anti-Myc IP, immunoblot). On the technique in general: A western blot detects proteins with antibodies after separation by electrophoresis.
For experiment [2] the target is unchanged. As to the kind of experiment: co-immunoprecipitation from whole cell extracts of transfected 293T cells (FIG. 5E legend).

Results are given in words; binding and its absence hold for the method and conditions named. In cells and extracts the contact can be indirect. Some results given as binding are weak or reduced against the parent protein; the word gives no strength.

On to “C/EBPβ (CCAAT/enhancer binding protein beta), full-length mouse (from UniProt P28033 1-296)”, for which the binding entry was “binds” with RORγt, mouse (mouse) [1] and “binds” with RORγt, mouse (mouse) [2].
